Measurements reported in PubChem BioAssay AID743121 (NCATS, 2013)
Here is one part, drawn at random, of about 26,000 reagents. 167 of them (0.63%) count as active. 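Calls are per gene from RSA p-values that are not deposited; an individual active-marked siRNA can sensitise only weakly.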 Entries without a mark were called inactive. The numbers tell different reagents against one gene apart.

Purpose: 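Genes whose silencing strengthens cell killing by camptothecin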 (primary screen)
Cells: MDA-MB-231 cells, a human breast cancer line
Reagent: single siRNA against human genes, 20 nM siRNA (0.8 pmol per well)
Timing: 120 h (drug added 48 h after transfection, read 72 h later)
Conditions: camptothecin 20 nM (about EC30) for 72 h; vehicle 0.1% DMSO in parallel plates
Read-out: 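Cell viability by ATP luminescence (CellTiter-Glo) as % of non-targeting siRNA wells, and the log2 ratio of viability without drug over viability with camptothecin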
Direction: log2 vehicle/camptothecin viability: higher = stronger sensitisation to camptothecin; viability with camptothecin and viability without drug: higher = more viable cells
Active means: 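Active genes have an RSA gene-level p-value below 0.001, computed from the ratios of their separate siRNAs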

| Gene | siRNA no. | log2 vehicle/camptothecin viability | viability with camptothecin (% of control) | viability without drug (% of control) |
| --- | --- | --- | --- | --- |
| NPVF (GeneID 64111) | 1 | -0.0343 | 32.6 | 31.8 |
| NPVF (GeneID 64111) | 2 | -0.0262 | 114 | 112 |
| NPVF (GeneID 64111) | 3 | 0.254 | 65 | 77.5 |
| NPVF (GeneID 64111) | 4 | -0.00238 | 99.2 | 99 |
| CCT5 (GeneID 22948) | 1 | -0.534 | 103 | 71.2 |
| CCT5 (GeneID 22948) | 2 | -0.345 | 64.8 | 51 |
| CCT5 (GeneID 22948) | 3 | -0.0414 | 69.9 | 67.9 |
| CCT5 (GeneID 22948) | 4 | -0.269 | 61.6 | 51.1 |
| EXOG (GeneID 9941) | 1 | 0.267 | 74.6 | 89.8 |
| EXOG (GeneID 9941) | 2 | -0.27 | 98.2 | 81.5 |
| EXOG (GeneID 9941) | 3 | 0.365 | 57.8 | 74.5 |
| SERPINF2 (GeneID 5345) | 1 | -0.0494 | 72 | 69.6 |
| SERPINF2 (GeneID 5345) | 2 | -0.592 | 58.2 | 38.6 |
| SERPINF2 (GeneID 5345) | 3 | -0.25 | 67.1 | 56.4 |
| CASP6 (GeneID 839) | 1 | 0.204 | 74.3 | 85.6 |
| CASP6 (GeneID 839) | 2 | 0.184 | 29 | 32.9 |
| CASP6 (GeneID 839) | 3 | -0.216 | 91.1 | 78.4 |
| CASP6 (GeneID 839) | 4 | -0.212 | 77.7 | 67.1 |
| IQGAP1 (GeneID 8826) | 1 | 0.0479 | 101 | 104 |
| IQGAP1 (GeneID 8826) | 2 | -0.16 | 27.5 | 24.6 |
| IQGAP1 (GeneID 8826) | 3 | -0.0822 | 60.9 | 57.5 |
| IQGAP1 (GeneID 8826) | 4 | -0.00576 | 65.3 | 65 |
| LASP1 (GeneID 3927) | 1 | -0.0541 | 117 | 112 |
| LASP1 (GeneID 3927) | 2 | -0.168 | 70.4 | 62.6 |
| LASP1 (GeneID 3927) | 3 | -0.0432 | 103 | 100 |
| LASP1 (GeneID 3927) | 4 | -0.581 | 65.1 | 43.5 |
| EDA2R (GeneID 60401) | 1 | 0.374 | 101 | 131 |
| EDA2R (GeneID 60401) | 2 | -0.178 | 83.8 | 74 |
| EDA2R (GeneID 60401) | 3 | 0.343 | 38 | 48.3 |
| EDA2R (GeneID 60401) | 4 | -0.139 | 127 | 115 |
| CYB561D2 (GeneID 11068) | 1 | -0.054 | 70.3 | 67.7 |
| CYB561D2 (GeneID 11068) | 2 | -0.603 | 64.1 | 42.2 |
| CYB561D2 (GeneID 11068) | 3 | 0.0622 | 34.7 | 36.3 |
| CYB561D2 (GeneID 11068) | 4 | -0.331 | 73.1 | 58.1 |
| REL (GeneID 5966) | 1 | 0.269 | 82 | 98.8 |
| REL (GeneID 5966) | 2 | -0.728 | 67.6 | 40.8 |
| REL (GeneID 5966) | 3 | -0.966 | 73.5 | 37.6 |
| REL (GeneID 5966) | 4 | -0.109 | 74.4 | 69 |
| CCN2 (GeneID 1490) | 1 | -0.0705 | 87.5 | 83.4 |
| CCN2 (GeneID 1490) | 2 | -0.316 | 79.5 | 63.9 |
| CCN2 (GeneID 1490) | 3 | -0.206 | 88.3 | 76.5 |
| DSP (GeneID 1832) | 1 | 0.13 | 92.4 | 101 |
| DSP (GeneID 1832) | 2 | 0.975 | 41.6 | 81.8 |
| DSP (GeneID 1832) | 3 | -0.404 | 99.2 | 75 |
| DSP (GeneID 1832) | 4 | -0.342 | 72.4 | 57.1 |
| BMP4 (GeneID 652) | 1 | -0.0947 | 14.8 | 13.8 |
| BMP4 (GeneID 652) | 2 | 0.0899 | 95.9 | 102 |
| BMP4 (GeneID 652) | 3 | -0.101 | 89 | 83 |
| HES1 (GeneID 3280) | 1 | -0.4 | 65 | 49.3 |
| HES1 (GeneID 3280) | 2 | -0.271 | 78.9 | 65.4 |
| HES1 (GeneID 3280) | 3 | -0.372 | 61.6 | 47.6 |
| HES1 (GeneID 3280) | 4 | -0.513 | 70.8 | 49.7 |
| ELK1 (GeneID 2002) | 1 | -0.0338 | 114 | 112 |
| ELK1 (GeneID 2002) | 2 | -0.366 | 79.6 | 61.8 |
| ELK1 (GeneID 2002) | 3 | 0.676 | 19.9 | 31.8 |
| ELK1 (GeneID 2002) | 4 | 0.146 | 62.5 | 69.2 |
| MECR (GeneID 51102) | 1 | -0.349 | 74.7 | 58.7 |
| MECR (GeneID 51102) | 2 | -0.406 | 75.2 | 56.7 |
| MECR (GeneID 51102) | 3 | -0.394 | 93.9 | 71.5 |
| MECR (GeneID 51102) | 4 | -0.127 | 73.3 | 67.1 |
| LPA (GeneID 4018) | 1 | -0.557 | 80.6 | 54.8 |
| LPA (GeneID 4018) | 2 | -0.343 | 31.9 | 25.2 |
| LPA (GeneID 4018) | 3 | -0.172 | 111 | 98.5 |
| LPA (GeneID 4018) | 4 | -0.0165 | 55.5 | 54.9 |
| GDF15 (GeneID 9518) | 1 | 0.028 | 89.5 | 91.2 |
| GDF15 (GeneID 9518) | 2 | -0.0815 | 103 | 97 |
| GDF15 (GeneID 9518) | 3 | -0.277 | 51.1 | 42.2 |
| GDF15 (GeneID 9518) | 4 | 0.0473 | 92.5 | 95.6 |
